{"source": "paper PMC6755124", "biological_target": "T1, C6orf203::FLAG (C-terminal FLAG tagged C6orf203) (human) (UniProt Q9P0P8)", "T1 sequence": "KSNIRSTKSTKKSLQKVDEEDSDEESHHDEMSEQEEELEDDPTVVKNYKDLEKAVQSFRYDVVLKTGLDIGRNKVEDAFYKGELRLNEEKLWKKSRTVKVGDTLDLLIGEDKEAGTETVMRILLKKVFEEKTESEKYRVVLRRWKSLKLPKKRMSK", "assay": "co-IP; FLAG immunoprecipitation without crosslinking from mitochondrial lysate of HEK293T expressing C6orf203::FLAG; anti-FLAG M2 agarose; lysis, wash and elution buffers with 5 mM MgCl2; eluted with 3x FLAG peptide; eluate immunoblotted; control HEK293T without FLAG protein", "note": "Results are given in words; binding and its absence hold for the method and conditions named. In cells and extracts the contact can be indirect. Tags and fused reporters may be left off the sequences shown.", "data": [{"substance": "bS16m (from UniProt Q9Y3D3 35-137)", "values": [{"measurement": "binding", "value": "no binding"}]}]}
